Data: paper PMC3182250

B1: GST-Kv7.2-CaMBD fusion protein, wild type (Kv7.2 CaM-binding site G310-L548) [human] / dansyl-calmodulin [modified: dansyl label (sites not stated); dansyl label (sites not stated)] [rat] (parent)
chain 1: not shown
chain 2: GILGSGFALKVQEQHRQKHFEKRRNPAAGLIQSAWRFYATNLSRTDLHSTWQYYERTVTVPMYRLIPPLNQLELLRNLKSKSGLAFRKDPPPEPSPSQKVSLKDRVFSSPRGVAAKGKGSPQAQTVRRSPSADQSLEDSPSKVPKSWSFGDRSRARQAFRIKGAASRQNSEEASLPGEDIVDDKSCPCEFVTEDLTPGLKVSIRAVCVMRFLVSKRKFKESLRPYDVMDVIEQYSAGHL

Variants of: B1
Assay: dansyl-calmodulin (D-CaM) fluorescence emission
Conditions: with dansyl-calmodulin [modified: dansyl label (sites not given), 12.5 nM D-CaM, 200 nM GST-Kv7.2-CaMBD fusion protein, read off a plot
[1] = -Ca2+ (10 mM EGTA and no added Ca2+)

| response (+Ca2+ (2.0 µM free Ca2+)) | response [1] | Variant |
| --- | --- | --- |
| 3% | 2% | chain 2 S202D |
| 2% | 2% | chain 2 I31E |
